Test results: patent US20100105874A1
No constants are given. Whether binding was seen depends on the method and setting. Some results given as binding are weak or reduced against the parent protein; the word gives no strength.

Sequences of proteins named here, by UniProt entry; tags and fusion partners are left off. A change or cut given only in a name is not applied to a line headed by its entry.
UniProt P30440: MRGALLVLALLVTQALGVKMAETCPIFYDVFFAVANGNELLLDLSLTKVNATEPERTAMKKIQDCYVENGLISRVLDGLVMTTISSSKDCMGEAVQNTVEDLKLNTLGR

What was measured:
[1] = target: T1, Bet v 1 (birch) (UniProt P15494); assay: heterologous cross-linking assay (Sepharose-coupled Fel d 1, 125I-Bet v 1), mouse plasma
T1 sequence (125I label where used as the soluble tracer, looked up): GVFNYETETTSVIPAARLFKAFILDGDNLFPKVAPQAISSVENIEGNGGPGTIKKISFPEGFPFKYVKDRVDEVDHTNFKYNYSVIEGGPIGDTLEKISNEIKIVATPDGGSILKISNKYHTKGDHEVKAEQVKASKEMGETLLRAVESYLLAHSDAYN

[2] = target: T2, Fel d 1 (cat) (UniProt P30438+P30440); assay: as above
[3] = target: T1, Bet v 1 (birch); assay: cross-linking radioassay (Sepharose-coupled cat extract, 125I-Bet v 1) on Superdex200 fractions, IgG4 mix incubated with erythrocyte lysate
[4] = target: T2, Fel d 1 (cat); assay: as above
[5] = target: T1, Bet v 1 (birch); assay: heterologous cross-linking assay (Fel d 1-Bet v 1) after 24 h with reducing agents
[6] = target: T2, Fel d 1 (cat); assay: as above
[7] = target: T1, Bet v 1 (birch); assay: bispecific activity to Bet v 1 and Fel d 1 in SCID mouse plasma, cross-linking radioassay
[8] = target: T2, Fel d 1 (cat); assay: as above
[9] = target: T1, Bet v 1 (birch); assay: cross-linking radioassay on Superdex200 fractions, IgG4 mix incubated with 0.5 mM GSH
[10] = target: T2, Fel d 1 (cat); assay: as above
[11] = target: T1, Bet v 1 (birch); assay: cross-linking radioassay on Superdex200 fractions, IgG4 mix incubated with erythrocytes for 72 h
[12] = target: T2, Fel d 1 (cat); assay: as above
[13] = target: T1, Bet v 1 (birch); assay: cross-linking radioassay on Superdex200 fractions, IgG4 mix incubated with whole blood components
[14] = target: T2, Fel d 1 (cat); assay: as above
[15] = target: T1, Bet v 1 (birch); assay: cross-linking radioassay on Superdex200 fractions of mouse plasma
[16] = target: T2, Fel d 1 (cat); assay: as above
[17] = target: T2, Fel d 1 (cat); assay: antigen binding test (protein G Sepharose, 125I-Fel d 1) on Superdex200 fractions of plasma of a mouse dosed with the IgG4 mix
[18] = target: T2, Fel d 1 (cat); assay: homologous cross-linking of 125I-Fel d 1 to Sepharose-immobilized Fel d 1, mouse plasma
[19] = target: T2, Fel d 1 (cat); assay: homologous Fel d 1 cross-linking (bivalency) assay, incubation with erythrocytes
[20] = target: T1, Bet v 1 (birch); assay: antigen binding test (protein G Sepharose, 125I-Bet v 1)
[21] = target: T1, Bet v 1 (birch); assay: antigen binding test (protein G Sepharose, 125I-Bet v 1) on Superdex200 fractions, IgG4 mix with 0.5 mM GSH
[22] = target: T1, Bet v 1 (birch); assay: antigen binding test (protein G Sepharose, 125I-Bet v 1) on Superdex200 fractions, IgG4 mix with erythrocyte lysate

Measured: binding

B1: bispecific IgG4 (Bet v 1-Fel d 1) (bispecific antibody, V domains shown)
VH 1: EVQLQQSGAELVKPGASVKLSCTASGFNIKDTYIHWVKQRPEQGLEWVGRIDPATGNTRYDPKFQGKATITADTSSNTAYLQLSSLTSEDTAVYYCASFRPGYALDYWGQGTSVTVSS
VL 1: DIVMTQSHKFMSTSVGDRVSFTCKASQDVFTAVAWYQQKPGQSPKLLIYWASTRRTGVPDRFTGSGSGTDYTLTISSVQAEDLALYYCQQHFSTPPTFGGGTKLEIK
VH 2: QVQLQQPGAELVKPGASVKLSCKASGYSFTSYWMHWLKQRPGQGLEWIGEINPNNGRTYYNEKFKTKATLTVDKSSSTAYMQLNSLTSEDSAVYYCARRLTMVESFAYWGQGTLVTFSA
VL 2: DIVMTQSPSSLTVTAGEKVTMSCKSSQSLLNSGNQKNYLTWYQQKPGQPPKLLIYWASTRESGVPDRFTGSGSGTDFSLTISSVQAEDLAIYYCQNDYSYPFTFGSGTKLEIK
not listed: [17] | [18] | [19] | [20] | [21] | [22]
binds: all other assays above

B2: Feld1-IgG4 (antibody, V domains shown)
VH: B1 VH 2
VL: B1 VL 2
binds: [17] | [18]

B3: Feld1-IgG1 (antibody, V domains shown)
VH: B1 VH 2
VL: B1 VL 2
binds: [19] | [18]

B4: Betv1-IgG1 (antibody, V domains shown)
VH: B1 VH 1
VL: B1 VL 1
binds: [20]

B5: Betv1-IgG4 (antibody, V domains shown)
VH: B1 VH 1
VL: B1 VL 1
binds: [21] | [22]
